Assay results: article PMC12631104
No constants are given. Whether binding was seen depends on the method and setting. In cells and extracts the contact can be indirect. Here binding means that the protein was enriched with, or labelled near, the bait; the list need not be complete. Where a sequence is shown, tags or fusion partners need not be part of it.

Biological target: T1, K-Hcy-modified FLAG-HMGB2-TurboID fusion protein (UniProt P26583)
T1 sequence (chain, N-homocysteinylated lysines (K-Hcy), in vitro with HTL; sites not stated): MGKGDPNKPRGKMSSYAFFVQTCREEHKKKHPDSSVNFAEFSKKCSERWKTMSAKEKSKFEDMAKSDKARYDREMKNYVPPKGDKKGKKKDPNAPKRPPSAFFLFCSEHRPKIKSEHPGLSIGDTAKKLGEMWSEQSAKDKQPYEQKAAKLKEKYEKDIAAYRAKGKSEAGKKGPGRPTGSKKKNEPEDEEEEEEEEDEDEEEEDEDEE
Test: proximity labelling; HCMEC treated with 0.25 uM purified TurboID-HMGB1/2 (K-Hcy modified or unmodified), 1 mM ATP, 5 mM MgCl2, 500 uM biotin, 1 hour, 37 C; streptavidin magnetic beads; LC-MS/MS; background of TurboID-FLAG alone subtracted; only the target purified

binding: binds
Substance: Slit Guidance Ligand 2 (SLIT2), endogenous in HCMEC (human (endogenous in HCMEC))
